These are yes or no findings as the source states them, for the method shown.
Molecular target: human METTL6 (human) (UniProt Q8TCB7)
Experiment: SEC; Superdex 200 10/300 column; 20 mM Tris-HCl pH 8.0, 150 mM NaCl, 1 mM DTT; calibrated with marker proteins; elutes at 15.8 ml, ~34.6 kDa apparent against ~35.7 kDa calculated; both purified

- binding: no binding
B1: human METTL6 (enzyme, UniProt Q8TCB7-1 1-284)
chain: MASLQRKGLQARILTSEEEEKLKRDQTLVSDFKQQKLEQEAQKNWDLFYKRNSTNFFKDRHWTTREFEELRSCREFEDQKLTMLEAGCGVGNCLFPLLEEDPNIFAYACDFSPRAIEYVKQNPLYDTERCKVFQCDLTKDDLLDHVPPESVDVVMLIFVLSAVHPDKMHLVLQNIYKVLKPGKSVLFRDYGLYDHAMLRFKASSKLGENFYVRQDGTRSYFFTDDFLAQLFMDTGYEEVVNEYVFRETVNKKEGLCVPRVFLQSKFLKPPKNPSPVVLGLDPKS

From publication PMC8642396, “Crystal structure of human METTL6, the m^3C methyltransferase” (Communications Biology, 2021)
